These results are taken from PubChem BioAssay AID248 (DTP/NCI, 2004).

The list is a part of this screen's results and no random one: it is rich in T/C values a quarter to a half above the control, in often repeated tests (any T/C) and in doses without a T/C. Other doses and runs of a compound stand elsewhere. T/C is the treated group as % of the vehicle group. Some doses have a count of surviving animals in place of a T/C: the source holds a T/C of zero for them, seemingly a mark for toxic or unscored doses. Some doses without a T/C left all or most animals alive at the check, yet need not have been tolerated: the source hardly ever lists a survival T/C far under the control, and the zero likely stands for such cases as well. Survivors were counted at the toxicity check, usually on the fifth day, unless a day is given; later deaths do not show. Schedules are NCI's codes, taken here to give the interval after Q, in days (D) or hours (H), and the number of doses after X. Some schedule codes hold Z or #, which are not explained here. Where survival is the endpoint, this PubChem deposit counts one and a half times the control or more as active, and values a quarter to a half above the control carry no call in these data; other NCI protocols may use other cut-offs. Some entries hold several experiments; the values are given in rising order. Some T/C values carry the count of animals alive at the toxicity check (mostly the fifth day); where none is given, no animal had died by that day.

For this experiment, the system named is L1210 leukemia ip in BDF1 mice, survival T/C. Nature of the experiment: NCI In Vivo Anticancer Drug Screen. Data for tumor model L1210 Leukemia (intraperitoneal) in B6D2F1 (BDF1) mice. The note with it: T/C endpoint: mean survival time, higher T/C = longer survival.
The mark [1] stands for this setting: dose: 400.0 mg/kg/injection, schedule: Q04DX003 (ip), vehicle: saline.
The mark [2] stands for this setting: dose: 400.0 mg/kg/injection, schedule: Q04DX003 (ip), vehicle: saline with Tween-80.
Setting [3] is: dose: 200.0 mg/kg/injection, schedule: Q04DX003 (ip), vehicle: saline.
The mark [4] stands for this setting: dose: 400.0 mg/kg/injection, schedule: Q01DX009 (ip), vehicle: Klucel (hydroxypropylcellulose) (HPC).

For `CC[n+]1ccc(-c2ccc(NC(=O)c3ccc(C(=O)Nc4ccc(-c5cc[n+](CC)cc5)cc4)cc3)cc2)cc1`, the T/C by setting is: (dose: 1.25 mg/kg/injection, schedule: Q01DX015 (ip), vehicle: carboxymethylcellulose (CMC)) 131 % of control; (dose: 7.5 mg/kg/injection, schedule: Q01DX001 (ip), vehicle: carboxymethylcellulose (CMC)) 134 and 138 % of control; (dose: 15.0 mg/kg/injection, schedule: Q01DX001 (ip), vehicle: carboxymethylcellulose (CMC)) 128 and 138 % of control; (dose: 30.0 mg/kg/injection, schedule: Q01DX001 (ip), vehicle: carboxymethylcellulose (CMC)) 130 % of control. Also, the survivor count runs as follows: (dose: 45.0 mg/kg/injection, schedule: Q01DX015 (ip), vehicle: carboxymethylcellulose (CMC)) 6 of 6; (dose: 75.0 mg/kg/injection, schedule: Q01DX015 (ip), vehicle: carboxymethylcellulose (CMC)) 6 of 6; (dose: 112.0 mg/kg/injection, schedule: Q01DX015 (ip), vehicle: carboxymethylcellulose (CMC)) 3 of 6.

Consider `COc1cc([C@@H]2c3cc4c(cc3[C@H](O)[C@H]3COC(=O)[C@H]23)OCO4)cc(OC)c1OC`, for which the survivor count is 5 of 10 (dose: 2.7 mg/kg/injection, schedule: Q01DX Z (ip), vehicle: carboxymethylcellulose (CMC)); 2 of 6 (dose: 75.0 mg/kg/injection, schedule: Q01DX001 (ip), vehicle: carboxymethylcellulose (CMC)); 0 of 6 (dose: 150.0 mg/kg/injection, schedule: Q01DX001 (ip), vehicle: carboxymethylcellulose (CMC)); 0 of 6 (dose: 300.0 mg/kg/injection, schedule: Q01DX001 (ip), vehicle: carboxymethylcellulose (CMC)).

In the case of `CCCCS(=O)c1nc2ccccc2s1` (stereo not drawn), the survivor count (dose: 400.0 mg/kg/injection, schedule: Q04DX002 (ip), vehicle: other) was 1 of 3.

As to `NC(c1ccccc1)c1ccccc1`, the survivor count under setting [1] is given as 0 of 6.

As for `Cc1cc(C(=O)Nc2ccc(C3=NCCN3)cc2)ccc1C(=O)Nc1ccc(C2=NCCN2)cc1`, the T/C (dose: 15.0 mg/kg/injection, schedule: Q01DX Z (ip), vehicle: saline) is 127 % of control and the T/C (dose: 30.0 mg/kg/injection, schedule: Q01DX Z (ip), vehicle: saline) is 144 % of control. Also, for the setting “dose: 480.0 mg/kg/injection, schedule: Q01DX Z (ip), vehicle: saline”, the survivor count is 0 of 6.

Take `COCCCNCCCN1CC1`: the T/C by setting is: (dose: 31.25 mg/kg/injection, schedule: Q01DX009 (ip), vehicle: saline) 134 % of control; (dose: 75.0 mg/kg/injection, schedule: Q04DX003 (ip), vehicle: saline) 125 % of control; (dose: 125.0 mg/kg/injection, schedule: Q04DX003 (ip), vehicle: saline) 129 % of control [4 of 6 alive]. Further, the survivor count is 2 of 6 (dose: 125.0 mg/kg/injection, schedule: Q01DX009 (ip), vehicle: saline); 3 of 6 (dose: 150.0 mg/kg/injection, schedule: Q04DX003 (ip), vehicle: saline); 0 of 6 (dose: 250.0 mg/kg/injection, schedule: Q01DX009 (ip), vehicle: saline); 0 of 6 (dose: 300.0 mg/kg/injection, schedule: Q04DX003 (ip), vehicle: saline).

As to `CCCCNC(=O)C1C=C2c3cccc4c3C(CN4)CC2N(C)C1` (stereo not drawn), the survivor count (dose: 100.0 mg/kg/injection, schedule: Q01DX009 (ip), vehicle: saline with Tween-80) is reported as 6 of 6.

For `CC(C(=O)c1ccccc1)C(N[N+](C)(C)C)c1ccccc1` (stereo not drawn), the survivor count is recorded as 0 of 3 (dose: 100.0 mg/kg/injection, schedule: Q04DX003 (ip), vehicle: saline with Tween-80); 0 of 3 (dose: 200.0 mg/kg/injection, schedule: Q04DX003 (ip), vehicle: saline with Tween-80); 0 of 3 under setting [2].

Turning to `COc1ccc(CN2CCCN(Cc3ccc(OC)cc3)C2c2ccc(NC(C)=O)cc2)cc1`, the survivor count (dose: 400.0 mg/kg/injection, schedule: Q01DX001 (ip), vehicle: acetone) is listed as 2 of 4.

Consider `Clc1nc(Sc2ccc(Br)cc2)c(Cl)c(Sc2ccc(Br)cc2)n1`, for which, for the setting “dose: 125.0 mg/kg/injection, schedule: Q01DX001 (ip), vehicle: Klucel (hydroxypropylcellulose) (HPC)”, the survivor count was 6 of 6.

`CCCn1cnc2c(=S)nc[nH]c21`: under “dose: 100.0 mg/kg/injection, schedule: Q01DX Z (ip), vehicle: carboxymethylcellulose (CMC)”, the T/C is 135 % of control.

Consider `NC(=O)/C=C/c1c[nH]c2nccnc12`, for which the survivor count reads like this: (dose: 50.0 mg/kg/injection, schedule: Q01DX009 (ip), vehicle: water) 1 of 6; (dose: 100.0 mg/kg/injection, schedule: Q01DX009 (ip), vehicle: water) 0 of 6; (dose: 200.0 mg/kg/injection, schedule: Q01DX009 (ip), vehicle: water) 0 of 6; (dose: 400.0 mg/kg/injection, schedule: Q01DX009 (ip), vehicle: water) 0 of 6.

Consider `CC1(C)N=C(N)N=C(N)N1c1cccc(OCc2cccc(NC(=O)CBr)c2)c1`, for which the survivor count (dose: 80.0 mg/kg/injection, schedule: Q01DX001 (ip), vehicle: saline) is on record as 0 of 6; the survivor count (dose: 100.0 mg/kg/injection, schedule: Q01DX001 (ip), vehicle: saline) was 1 of 4; the survivor count (dose: 200.0 mg/kg/injection, schedule: Q01DX001 (ip), vehicle: saline) is 0 of 4; the survivor count (dose: 400.0 mg/kg/injection, schedule: Q01DX001 (ip), vehicle: saline) is 0 of 4.

In the case of `NCCCc1nc(N)nc(N)c1-c1ccc(Cl)cc1`, the survivor count is, setting by setting: under setting [3], 0 of 6; under setting [1], 0 of 6.

With `C/C=C/C(=O)Nc1ccc(CC)cc1`, under setting [4], the survivor count is recorded as 3 of 6.

Turning to `O=C(CCl)Nc1ccc([As](=O)(O)O)cc1`, the survivor count by setting is: (dose: 100.0 mg/kg/injection, schedule: Q01DX009 (ip), vehicle: Klucel (hydroxypropylcellulose) (HPC)) 3 of 6; (dose: 200.0 mg/kg/injection, schedule: Q04DX003 (ip), vehicle: Klucel (hydroxypropylcellulose) (HPC)) 1 of 6.

In the case of `c1ccc2cc3c(cc2c1)Cn1c-3nc2ccccc21`, the survivor count by setting is: (dose: 400.0 mg/kg/injection, schedule: Q01DX015 (ip), vehicle: saline) 6 of 6; (dose: 800.0 mg/kg/injection, schedule: Q01DX015 (ip), vehicle: saline) 5 of 6.

Regarding `COCCN=C(NCCOC)c1ccc(Nc2ncnc3nc[nH]c23)cc1`, the survivor count under setting [3] is on record as 0 of 6.

As to `O=C1CN(CN2CCCCC2)C(=O)CN1CN1CCCCC1`, under setting [4], the survivor count is reported as 2 of 6.

Consider `CN(N=O)C(=O)NC1CCOCC1`, for which the T/C (dose: 375.0 mg/kg/injection, schedule: Q01DX001 (ip), vehicle: saline) was 126 % of control. The survivor count (dose: 1000.0 mg/kg/injection, schedule: Q01DX001 (ip), vehicle: saline) was 4 of 10.

For the compound `CCOC(=O)c1ccc(N2C(N)=NC(N)=NC2(C)C)cc1`, the survivor count under setting [3] is recorded as 6 of 6 and the survivor count under setting [1] is reported as 0 of 6.

For `CCCCOC(=O)c1ccccn1`, under setting [2], the survivor count is recorded as 1 of 6.

On to `CC1OC(OC2C(O[C@H]3CC[C@@]4(C)C(=CC[C@H]5[C@@H]6C[C@@H]7O[C@]8(CC[C@H](C)CN8)[C@@H](C)[C@@H]7[C@@]6(C)CC[C@@H]54)C3)OC(CO)C(O)C2OC2OC(CO)C(O)C(O)C2O)C(O)C(O)C1O` (stereo partly drawn), for which the survivor count is 2 of 4 (dose: 40.0 mg/kg/injection, schedule: Q01DX001 (ip), vehicle: other); 1 of 4 (dose: 50.0 mg/kg/injection, schedule: Q01DX001 (ip), vehicle: other); 1 of 4 (dose: 80.0 mg/kg/injection, schedule: Q01DX001 (ip), vehicle: other); 1 of 4 (dose: 100.0 mg/kg/injection, schedule: Q01DX001 (ip), vehicle: other); 0 of 4 (dose: 200.0 mg/kg/injection, schedule: Q01DX001 (ip), vehicle: other); 0 of 4 (dose: 400.0 mg/kg/injection, schedule: Q01DX001 (ip), vehicle: other).
